Key:
[1] = solution-phase peptide synthesis; diethyl phosphorocyanidate (DEPC), triethylamine; conditions: whole synthesis, overall
[2] = general procedure: solution-phase peptide synthesis; diethyl phosphorocyanidate (DEPC), triethylamine

| Substance | isolated yield [1] [%] | step yield ([2]; coupling step) [%] | step yield ([2]; late stage modification step) [%] |
| --- | --- | --- | --- |
| (S)-Dov-(S)-Val-(S)-NMe-Val-(S)-Pro-(S)-Pro-(8)-Hiva-(S)-Dpy | 11 | 97 |  |
| (S)-Val-NMe-(S)-Val-(S)-Pro-(S)-Pro-(S)-Hiva-(S) -Dpy |  |  | 96 |
| Z-(S)-Val-NMe-(S)-Val-(S)-Pro-(S)-Pro-(S-Hiva-(S)-Dpy |  | 89 |  |

From patent US5554725 (dated 1996)
